{
  "source": "paper PMC11946258",
  "about": "“Self-Assembly, Antimicrobial Properties and Biodegradability of Ester-Functionalized Choline-Based Surface-Active Ionic Liquids” (Molecules, 2025)",
  "tested_on": "microorganisms derived from activated sludge",
  "assay": "Aerobic biodegradability, CO2 Headspace Test (OECD 310)",
  "data": [
    {"molecule": "O=C([O-])c1ccccc1.[Na+]", "note": "[NaBz, sodium benzoate, reference compound]", "values": [
      {"measurement": "Biodegradation (%) 7 Days", "setting": "7 days", "value": 80, "unit": "%"},
      {"measurement": "Biodegradation (%) 14 Days", "setting": "14 days", "value": 91, "unit": "%"},
      {"measurement": "Biodegradation (%) 21 Days", "setting": "21 days", "value": 93, "unit": "%"},
      {"measurement": "Biodegradation (%) 28 Days", "setting": "28 days, 95% confidence limits, four replicates", "value": "98 ± 5.1", "unit": "%"}
    ]}
  ]
}
